From US11427783B2, “Perfuming compositions” (Firmenich SA, priority 2016, dated 2022)

Experiment: Odor threshold of perfuming compounds in air
[1] = Table 6, perfuming compounds having a fruity note
[2] = Table 8, perfuming compounds having a sweet note
[3] = Table 9, perfuming compounds having a gourmand note
[4] = perfuming compounds having a fruity note (Table 6)
[5] = Table 5, perfuming compounds having a green note
[6] = Table 10, perfuming compounds having a woody note

Compound | Odor Threshold [4] | Odor Threshold [5] | other results
O=C1CCCCCCC/C=C/CCCCCCO1 [(10E)-oxacycloheptadec-10-en-2-one] |  |  | Odor Threshold (μg/l air) [1]: 4.77E−04 μg/l air
CC(=O)OCCc1ccccc1 [2-PHENYLETHYL ACETATE] | 2.14E−03 μg/l air |  | Odor Threshold (μg/l air) [2]: 2.14E−03 μg/l air; Odor Threshold (μg/l air) [3]: 2.14E−03 μg/l air
CC/C=C\CCOC(=O)c1ccccc1O [(3Z)-3-hexen-1-yl salicylate] |  | 3.23E−04 μg/l air | 
CC1CC(C)(c2ccccc2)OC(C)O1 (stereo not drawn) |  |  | Odor Threshold (μg/l air) [1]: 7.82E−03 μg/l air
C[C@@H]1CC[C@H]2[C@H](C)C(=O)O[C@@H]2C1 |  |  | Odor Threshold (μg/l air) [3]: 3.46E−05 μg/l air
O=c1ccc2ccccc2o1 [2-CHROMENONE] |  |  | Odor Threshold (μg/l air) [2]: 1.62E−05 μg/l air; Odor Threshold (μg/l air) [3]: 1.62E−05 μg/l air
CC(C)(C)Cc1cccnc1 [3-(2,2-DIMETHYLPROPYL)PYRIDINE] | 2.82E−03 μg/l air |  | 
CCOC(=O)C1OC1(C)c1ccccc1 (stereo not drawn) [ETHYL 2,3-EPDXY-3-PHENYLBUTANOATE] |  |  | Odor Threshold (μg/l air) [1]: 2.28E−05 μg/l air
C=C1C2CCC(C)(OCC)C1CCC2(C)C (racemic) |  |  | Odor Threshold (μg/l air) [6]: 1.37E−01 μg/l air
CC(=O)O[C@@H]1C(C)(C)CCC[C@]12CC=C(C)C[C@H]2C (racemic) |  |  | Odor Threshold (μg/l air) [6]: 3.79E−03 μg/l air
(−)-(1S)-2,6,6-TRIMETHYL-BICYCLO[3.1.1]HEPT-2-ENE |  | 1.02E−01 μg/l air | 
CCCCCCCCOC(C)=O [octyl acetate] | 1.76E−01 μg/l air |  | 
CC1=CCC(CCC(C)C(C)O)C1(C)C (racemic) |  |  | Odor Threshold (μg/l air) [6]: 1.52E−03 μg/l air
CC/C=C\CC/C=C/C=O [(2E,6Z)-2,6-NONADIENAL″, (2E,6Z)-2,6-NONADIENAL] |  | 1.46E−04 μg/l air | 
CCC=CCC=C/C=C/C(=O)OCC [ETHYL (2E)-2,4,7-DECATRIENOATE] |  | 1.49E−02 μg/l air | Odor Threshold (μg/l air) [1]: 1.49E−02 μg/l air
C/C=C/C(=O)C1C(C)=CCCC1(C)C (racemic) |  | 1.04E−04 μg/l air | Odor Threshold (μg/l air) [1]: 1.04E−04 μg/l air; Odor Threshold (μg/l air) [2]: 1.04E−04 μg/l air; Odor Threshold (μg/l air) [6]: 1.04E−04 μg/l air
CC1=C(O)C(=O)CC1 [2-HYDROXY-3-METHYL-2-CYCLOPENTEN-1-ONE] |  |  | Odor Threshold (μg/l air) [2]: 3.82E−04 μg/l air
CC(=O)CCC=C(C)C [6-METHYL-5-HEPTEN-2-ONE] | 1.06E−01 μg/l air | 1.06E−01 μg/l air | 
COCC(C)Cc1ccccc1 (racemic) [(+−)-(3-methoxy-2-methylpropyl)benzene] | 1.51E−02 μg/l air | 1.51E−02 μg/l air | 
CCCCCCOC(=O)c1ccccc1O [HEXYL 2-HYDROXYBENZOATE] |  | 5.50E−03 μg/l air | Odor Threshold (μg/l air) [1]: 5.50E−03 μg/l air
CCCC(=O)OCC [ETHYL BUTANOATE] | 3.68E−04 μg/l air | 3.68E−04 μg/l air | 
CC(=O)OCCC1CCCCC1 [2-CYCLOHEXYL ETHYL ACETATE] | 4.49E−02 μg/l air |  | 
CC/C=C\CCOC(=O)CCC [(3Z)-3-hexen-1-yl butyrate] | 7.85E−02 μg/l air | 7.85E−02 μg/l air | 
C/C=C/c1ccc(OC)cc1 [1-methoxy-4-[(1E)-1-propen-1-yl]benzene] | 1.23E−03 μg/l air |  | Odor Threshold (μg/l air) [2]: 1.23E−03 μg/l air; Odor Threshold (μg/l air) [3]: 1.23E−03 μg/l air
CCOC(=O)/C(C)=C/C(C)C [ethyl (2E)-2,4-dimethyl-2-pentenoate] | 9.55E−03 μg/l air |  | 
CCCCCC1C(=O)CCC1CC(=O)OC (single isomer, unassigned; (+)) |  |  | Odor Threshold (μg/l air) [6]: 2.82E−04 μg/l air
CCCCCCC(=O)OCC [ethyl heptanoate] | 7.17E−03 μg/l air |  | 
CCCC(O)CC[C@@H]1[C@@H](C)CCCC1(C)C (mixture of isomers) |  |  | Odor Threshold (μg/l air) [6]: 5.92E−04 μg/l air
CCCCCC(=O)OC [METHYL HEXANOATE] | 8.43E−02 μg/l air | 8.43E−02 μg/l air | 
CC(C)Cc1ccc2ccccc2n1 [2-ISOBUTYLQUINOLINE] |  |  | Odor Threshold (μg/l air) [2]: 1.93E−04 μg/l air
